Measurements reported in PubChem BioAssay AID686937 (Drosophila RNAi Screening Center, 2013)

- Purpose: 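Genes in the fly needed for secretion of protein constitutively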 (primary screen)
- Cells: Drosophila S2 cells expressing secreted horseradish peroxidase
- Knock-down reagent: long dsRNA against Drosophila genes
- Time to read-out: about 5.5 days (5 days dsRNA, then 12 h reporter induction)
- Challenge: reporter expression induced after 5 days of dsRNA, read 12 h later; inducer not stated
- Read-out: 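After 5 days of dsRNA and 12 h of reporter induction, medium peroxidase read by chemiluminescence and scored as per-plate z-score; higher values mean more reporter released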
- Reading the numbers: z-score: higher = more reporter secreted into medium
The screen tested about 23,000 reagents; below is an unselected part of those with a known target gene and a result. 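Reduced-secretion tags in replicate 1 do not always agree with the z-scores; no criterion for assigning the tags was given.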 Reagents against one gene are numbered here. A plus sign joins genes that one reagent is predicted to hit. Further read-outs or replicates are left out here. Not given: the amount of reagent.

After knock-down of Cdc27 (GeneID 38798) the results were z-score, replicate 1 = -5.9; phenotype, replicate 1 = reduced secretion.
Knock-down of CCT5 (GeneID 36308) came out at: z-score, replicate 1 = -0.5.
For CG9897 + asRNA:CR42742, the entry reads z-score, replicate 1 = 0.15.
Rcd2 (GeneID 40283) scored z-score, replicate 1 = 0.16.
Against Mcm6 (GeneID 31603), the entry reads z-score, replicate 1 = 0.35.
CG11788 (GeneID 37295) showed z-score, replicate 1 = 0.19.
After knock-down of Raf (GeneID 31221), the screen gave z-score, replicate 1 = -0.69.
For Gnpat (GeneID 53586), the entry reads z-score, replicate 1 = 0.48.
Knock-down of Ir87a (GeneID 41654) gave: z-score, replicate 1 = 0.66.
Against l(2)k09022 (GeneID 33960), the entry reads z-score, replicate 1 = 0.26.
Cnep1r2 (GeneID 39204) gave z-score, replicate 1 = 0.51.
After knock-down of alien + CG17906, the screen gave z-score, replicate 1 = 0.5.
Against CG18598 (GeneID 42188), the values are z-score, replicate 1 = 0.26.
Depletion of Taf12 (GeneID 41406) gave: z-score, replicate 1 = 0.22.
aop (GeneID 33392) gave z-score, replicate 1 = -2.04; phenotype, replicate 1 = reduced secretion.
After knock-down of CG12688 (retired record) (GeneID 31378) #1 the results were z-score, replicate 1 = 0.28.
Against CG12688 (retired record) (GeneID 31378) #2, the entry reads z-score, replicate 1 = -0.54.
CG13742 + CNT1 gave z-score, replicate 1 = 0.36.
Ada3 (GeneID 32787) #1 gave z-score, replicate 1 = 0.09.
After knock-down of Ada3 (GeneID 32787) #2 the results were z-score, replicate 1 = -0.03.
After knock-down of ash2 (GeneID 42936), the record shows z-score, replicate 1 = 0.29.

Reprinted from the entries so far (4 entries):
Raf (GeneID 31221): z-score, replicate 1 = -0.69
Gnpat (GeneID 53586): z-score, replicate 1 = 0.48
Ir87a (GeneID 41654): z-score, replicate 1 = 0.66
l(2)k09022 (GeneID 33960): z-score, replicate 1 = 0.26

Additional entries follow:
Depletion of SP1173 (GeneID 38744) resulted in: z-score, replicate 1 = 0.35.
sgl (GeneID 38760) showed z-score, replicate 1 = 0.
CG5850 (GeneID 34327) scored z-score, replicate 1 = 0.56.
Polr1F (GeneID 33963) showed z-score, replicate 1 = 0.22.
CG17075 (GeneID 33191) gave z-score, replicate 1 = 0.38.
For Trmt61 (GeneID 43170) the deposit lists z-score, replicate 1 = 0.42.
After knock-down of Spn42Dc (GeneID 35600), the record shows z-score, replicate 1 = 0.2.
For CG9393 (GeneID 41152), the values are z-score, replicate 1 = 0.53.
Knock-down of CSN7 (GeneID 35816) #1 resulted in: z-score, replicate 1 = -0.92.
For CSN7 (GeneID 35816) #2, the values are z-score, replicate 1 = -2.12; phenotype, replicate 1 = reduced secretion.
After knock-down of Fad2 (GeneID 44006) the results were z-score, replicate 1 = -4.18; phenotype, replicate 1 = reduced secretion.
For CG18095 (GeneID 34823), the values are z-score, replicate 1 = 0.03.
Depletion of Pgant6 (GeneID 38346) came out at: z-score, replicate 1 = -3.11; phenotype, replicate 1 = reduced secretion.
CG14983 (GeneID 38466) gave z-score, replicate 1 = -0.72.
After knock-down of SmydA-7 (GeneID 36916), the record shows z-score, replicate 1 = 0.09.
After knock-down of CG6293 (GeneID 41259) the results were z-score, replicate 1 = 0.38.
Depletion of Cpes (GeneID 37782) came out at: z-score, replicate 1 = -0.32.
With knock-down of Tsp42Ed (GeneID 35613), the screen gave z-score, replicate 1 = 0.79.
CG34005 (GeneID 3885597) showed z-score, replicate 1 = 0.31.
For CG12078 (GeneID 38401), the values are z-score, replicate 1 = 0.3.
Against unc-13-4A (GeneID 38801) #1, the entry reads z-score, replicate 1 = 0.35.
Knock-down of unc-13-4A (GeneID 38801) #2 resulted in: z-score, replicate 1 = 0.11.
After knock-down of unc-13-4A (GeneID 38801) #3, the record shows z-score, replicate 1 = -4.54; phenotype, replicate 1 = reduced secretion.
unc-13-4A (GeneID 38801) #4 gave z-score, replicate 1 = 0.24.
Klf15 (GeneID 31410) scored z-score, replicate 1 = 0.37.
After knock-down of HSPC300 (GeneID 246497), the screen gave z-score, replicate 1 = -0.48.
Against CR10102 (GeneID 12798454) the deposit lists z-score, replicate 1 = 0.04.
Pph13 (GeneID 33239) showed z-score, replicate 1 = 0.33.
Against lig (GeneID 35771) #1 the deposit lists z-score, replicate 1 = 0.39.
Against lig (GeneID 35771) #2 the deposit lists z-score, replicate 1 = -0.06.
